# The campaign covered roughly 330,000 compounds. About 7,700 (2.3%) were called active. The inconclusive results got no clear call from the source; some entries with a clear call stand among them for comparison. Calls come from the whole dose curve; as a rule, active = well fitted inhibition curve with a large enough effect; inconclusive = small, poorly fitted or top-dose-only effect, or effect the other way; inactive = flat fitted curve, though single readings scatter. A potency beside an inconclusive call is a rough fit, not a confirmed value.
# Assay: qHTS screen for small molecules that inhibit ELG1-dependent DNA repair in human embryonic kidney (HEK293T) cells expressing luciferase-tagged ELG1; note: nearly all actives have a fitted effect of over 55% in size
# Conditions: HEK293T ELG1-luciferase reporter, luminescence, 16 h, DNA damage induced by 5-fluorouridine; series mostly up to 46.1 µM
# Method in brief: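 HEK293T cells expressing luciferase-tagged ELG1 (2,000/well) received 5-Fluorouridine plus compound or DMSO for 16 hr at 37 °C. Luciferase was read by ONE-Glo luminescence after 30 min at room temperature.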
# Potency is the fitted concentration of half-maximal effect.
row,SMILES,Potency
1,COC(=O)C1=C(c2ccc(F)cc2OCc2ccccc2)C[C@@H]2CC[C@H]1N2C(=O)NCCOc1ccccc1,"inconclusive: 16.4 µM [inhibitor, partial curve, poor fit]"
2,O=C(Nc1ccccc1F)Oc1cccc(OC(=O)Nc2ccccc2F)c1,"inconclusive: 16.4 µM [activator, partial curve]"
3,Cn1cc(C(=O)OCC(=O)NC2CCCCC2)c2ccccc21,inactive
4,O=c1oc(-c2cccc(C(F)(F)F)c2)nn1-c1ccc(C(F)(F)F)cn1,"inconclusive: 32.6 µM [inhibitor, partial curve, poor fit]"
5,N=c1c2c(n(Cc3ccc(Cl)cc3Cl)c3c1CCC3)CCCC2,"inconclusive: 9.2 µM [inhibitor, partial curve, poor fit]"
6,O=C(Nc1ccc2ccccc2c1)c1nn(C23CC4CC(CC(C4)C2)C3)cc1Br,"inconclusive: 8.2 µM [inhibitor, single point]"
7,Fc1ccccc1CNCCc1c[nH]c2ccccc12,inactive
8,CCOC(=O)C1(CCc2ccccc2)CCN(Cc2cccc3c2OCO3)CC1,"inconclusive: 18.3 µM [inhibitor, single point]"
9,COC(=O)C1=C(c2ccc(OC)c(OC)c2)C[C@@H]2CC[C@H]1N2C(=O)NCc1ccco1,"inconclusive: 1.16 µM [activator, single point]"
10,COC(=O)C1=C(c2ccc(-c3ccccc3)c(F)c2)C[C@@H]2CC[C@H]1N2C(=O)N1CCC(C)CC1,"inconclusive: 4.11 µM [inhibitor, partial curve, poor fit]"
11,O=C(C1CC(c2ccc(F)cc2)=NO1)N1CCC2(CC1)OCCO2 (stereo not drawn),"inconclusive: 16.4 µM [activator, partial curve]"
12,CC(C)(C)c1nc(N2CCN(C(=O)c3ccco3)CC2)c2nnn(Cc3ccccc3Cl)c2n1,inactive
13,CC(=O)N1CCc2cc(S(=O)(=O)NCCCN3CCN(Cc4ccccc4)CC3)ccc21,"inconclusive: 14.6 µM [inhibitor, partial curve, poor fit]"
14,CCCCCCN=C(C)c1c(O)n(CCCC)c(=O)[nH]c1=O,"inconclusive: 29.1 µM [inhibitor, single point]"
15,O=C1NC(=S)N(c2ccccc2F)C(=O)/C1=C\c1cccs1,"inconclusive: 29.1 µM [inhibitor, single point]"
16,CCCCCn1c(=O)c(C(=O)Nc2ccccc2Cl)c(O)c2ccccc21,inactive
17,CC(C)(C)c1csc(NC(=O)Nc2ccccc2)n1,"inconclusive: 2.91 µM [activator, partial curve]"
18,COc1ccc2c(c1)NP(=S)(Oc1ccccc1)N2 (stereo not drawn),"inconclusive: 20.6 µM [activator, partial curve]"
19,C=CC[C@@H](CC(=O)N[C@H](CO)Cc1ccccc1)C(=O)NCCOC(=O)[C@@H](CC=C)Cc1ccc(F)cc1,"inconclusive: 25.9 µM [inhibitor, partial curve]"

row,SMILES,Potency
1,CCC(C)OC(=O)c1c(N)n(Cc2cccs2)c2nc3ccccc3nc12 (stereo not drawn),"inconclusive: 16.4 µM [inhibitor, partial curve]"
2,CC/C(=N\NC(=O)c1ccccc1)c1c(O)n(Cc2ccccc2)c(=O)[nH]c1=O,"inconclusive: 13 µM [activator, partial curve]"
3,CCN1C(=O)N(CC)C(=O)C2(Cc3ccccc3N3CCN(c4ccccc4)CC32)C1=O (stereo not drawn),"inconclusive: 23.1 µM [activator, partial curve]"
4,Cc1cc(C)c(NC(=O)C2CC3CCC2C3)c(C)c1 (stereo not drawn),"inconclusive: 8.2 µM [activator, partial curve, poor fit]"
5,O=C1NC(=O)[C@]2(Cc3ccccc3N3CCN(c4ccccc4)CC32)C(=O)N1Cc1ccccc1 (stereo partly drawn),"inconclusive: 14.6 µM [activator, partial curve, poor fit]"
6,CCOC(=O)C(O)(c1ccc(N(C)C(=O)c2ccc(Cl)c(Cl)c2)cc1)C(F)(F)F (stereo not drawn),"inconclusive: 20.6 µM [activator, single point]"
7,O=c1[nH]c(O)c(N=Nc2ccc3c(c2)OCCO3)c(=O)[nH]1,"inconclusive: 1.64 µM [activator, full curve]"
8,CN(C)C(=O)Oc1ccc(Cl)c2ccccc12,"inconclusive: 18.4 µM [activator, single point]"
9,COc1cccc(OC)c1C1=NCC(=O)Nc2c1oc1ccc(Br)cc21,"inconclusive: 1.16 µM [inhibitor, single point]"
10,COc1cccc(C2=NOC(C(=O)N3CCC4(CC3)OCCO4)C2)c1 (stereo not drawn),"inconclusive: 11.6 µM [activator, partial curve, poor fit]"
11,O=C(CSCC(=O)N1CCOCC1)Nc1nc(-c2ccc3c(c2)OCO3)cs1,"inconclusive: 9.2 µM [activator, partial curve]"
12,NC(=O)c1ccc(NC(=O)COC(=O)C2(c3ccccc3F)CCCC2)cc1,"inconclusive: 20.6 µM [inhibitor, partial curve, poor fit]"
13,CCN(CC)P(=O)(Nc1ccc([N+](=O)[O-])cc1)c1c(C)nn(CCC#N)c1NC(=O)c1ccc(Cl)cc1Cl (stereo not drawn),"inconclusive: 23.1 µM [inhibitor, single point]"
14,C/C=C(\C)C(=O)N[C@@H](c1ccccc1)[C@@H](O)C(=O)O[C@H]1C[C@@]2(O)[C@@H](OC(=O)c3ccccc3)C3[C@](C)(C(=O)[C@H](OC(C)=O)C(=C1C)C2(C)C)[C@H](O)C[C@H]1OC[C@@]31OC(C)=O (stereo partly drawn),"inconclusive: 0.116 µM [inhibitor, single point]"
15,COc1ccc(N2C(=O)NC(=O)/C(=C/c3ccc4c(c3)Cc3ccccc3-4)C2=O)cc1,"inconclusive: 11.6 µM [activator, partial curve]"
16,C=CCn1c(O)c(C(C)=NCCC(c2ccccc2)c2ccccc2)c(=O)[nH]c1=O,active: 7.31 µM
17,CC(=Nc1ccc2c(c1)CCC2)c1c(O)n(C)c(=O)n(C)c1=O,inactive
18,CC1CCN(CC#CCOc2ccc(Cl)cc2)CC1,inactive
19,O=[N+]([O-])c1cc(Cl)c(O)c(-[n+]2c(-c3ccccc3)cc(-c3ccccc3)cc2-c2ccccc2)c1,"inconclusive: 16.4 µM [inhibitor, single point]"

# Some of the entries above, set out differently:
row	SMILES	Potency
4	Cc1cc(C)c(NC(=O)C2CC3CCC2C3)c(C)c1 (stereo not drawn)	inconclusive: 8.2 µM [activator, partial curve, poor fit]
5	O=C1NC(=O)[C@]2(Cc3ccccc3N3CCN(c4ccccc4)CC32)C(=O)N1Cc1ccccc1 (stereo partly drawn)	inconclusive: 14.6 µM [activator, partial curve, poor fit]

# — PubChem BioAssay AID504467 (National Center for Advancing Translational Sciences (NCATS), 2011)
